From publication PMC4526367, “Weak Interactions between Salmonella enterica FlhB and Other Flagellar Export Apparatus Proteins Govern Type III Secretion Dynamics” (PLoS ONE, 2015)
Results are given in words; binding and its absence hold for the method and conditions named. Some entries that bind do so weakly or less than the wild type.

Protein sequences, listed by entry. Tags and fused reporters are not part of them. Residues count along the entry.
UniProt P02769, residues 25-607: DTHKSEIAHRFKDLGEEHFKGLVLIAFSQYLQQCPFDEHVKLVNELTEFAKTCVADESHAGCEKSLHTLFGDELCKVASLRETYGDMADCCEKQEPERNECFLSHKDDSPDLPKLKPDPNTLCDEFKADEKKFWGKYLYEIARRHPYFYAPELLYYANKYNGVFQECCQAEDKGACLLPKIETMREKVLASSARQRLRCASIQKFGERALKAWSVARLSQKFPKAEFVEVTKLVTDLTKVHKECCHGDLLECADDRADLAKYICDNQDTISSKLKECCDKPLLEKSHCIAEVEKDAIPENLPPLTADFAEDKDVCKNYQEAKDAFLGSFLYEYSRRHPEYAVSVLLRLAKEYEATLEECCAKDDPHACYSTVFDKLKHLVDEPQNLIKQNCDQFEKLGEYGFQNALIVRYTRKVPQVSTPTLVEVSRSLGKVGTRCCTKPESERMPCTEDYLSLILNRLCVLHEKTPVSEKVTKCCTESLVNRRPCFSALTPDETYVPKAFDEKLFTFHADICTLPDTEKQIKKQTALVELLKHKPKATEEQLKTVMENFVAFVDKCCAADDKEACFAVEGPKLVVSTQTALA
UniProt P0A1K1: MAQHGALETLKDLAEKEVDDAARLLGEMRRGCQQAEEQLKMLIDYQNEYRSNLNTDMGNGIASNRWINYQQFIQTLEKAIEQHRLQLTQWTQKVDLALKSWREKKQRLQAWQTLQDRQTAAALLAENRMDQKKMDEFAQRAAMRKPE
UniProt P26465: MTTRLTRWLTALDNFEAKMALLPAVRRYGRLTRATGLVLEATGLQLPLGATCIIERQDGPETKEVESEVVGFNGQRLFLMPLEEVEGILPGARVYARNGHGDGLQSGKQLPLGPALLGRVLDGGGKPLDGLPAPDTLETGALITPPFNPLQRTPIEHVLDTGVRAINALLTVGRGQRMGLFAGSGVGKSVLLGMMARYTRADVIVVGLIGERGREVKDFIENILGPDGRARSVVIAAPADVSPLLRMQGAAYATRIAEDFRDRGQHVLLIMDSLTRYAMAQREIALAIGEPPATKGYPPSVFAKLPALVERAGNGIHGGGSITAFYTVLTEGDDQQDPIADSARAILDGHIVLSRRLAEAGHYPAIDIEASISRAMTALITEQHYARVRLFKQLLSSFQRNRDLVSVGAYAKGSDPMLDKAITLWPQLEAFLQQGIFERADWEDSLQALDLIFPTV

Assays:
BSA (bovine) = BSA (bovine) (UniProt P02769); assay: BLI; nonspecific binding control: biotinylated BSA on streptavidin sensors, apparatus proteins as analytes at 1 uM; HBS-T, 25°C; both purified
[1] = target: FlhB in hook-basal bodies (HBBs) prepared from SJW880 (Salmonella enterica (endogenous in SJW880)) (UniProt P40727); assay: SDS-PAGE and anti-FlhB immunoblot (SDS-stable dimer); hook-basal body preparation from SJW880

FliJ (from UniProt P0A1K1 1-147)
binding (BSA (bovine)): no binding (tested: 1 μM)

FliI (from UniProt P26465 1-456) (enzyme)
binding (BSA (bovine)): no binding (tested: 1 μM)

B1: FlhB in hook-basal bodies (HBBs) prepared from SJW880 (protein, UniProt P40727 1-383)
chain: MAEESDDDKTEAPTPHRLEKAREEGQIPRSRELTSLLILLVGVCIIWFGGESLARQLAGMLSAGLHFDHRMVNDPNLILGQIILLIKAAMMALLPLIAGVVLVALISPVMLGGLIFSGKSLQPKFSKLNPLPGIKRMFSAQTGAELLKAVLKSTLVGCVTGFYLWHHWPQMMRLMAESPIVAMGNALDLVGLCALLVVLGVIPMVGFDVFFQIFSHLKKLRMSRQDIRDEFKESEGDPHVKGKIRQMQRAAAQRRMMEDVPKADVIVTNPTHYSVALQYDENKMSAPKVVAKGAGLIALRIREIGAEHRVPTLEAPPLARALYRHAEIGQQIPGQLYAAVAEVLAWVWQLKRWRLAGGQRPPQPENLPVPEALDFMNEKNTDG
binding [1]: binds

B2: FliH (natural protein)
chain: MSNELPWQVWTPDDLAPPPETFVPVEADNVTLTEDTPEPELTAEQQLEQELAQLKIQAHEQGYNAGLAEGRQKGHAQGYQEGLAQGLEQGQAQAQTQQAPIHARMQQLVSEFQNTLDALDSVIASRLMQMALEAARQVIGQTPAVDNSALIKQIQQLLQQEPLFSGKPQLRVHPDDLQRVEEMLGATLSLHGWRLRGDPTLHHGGCKVSADEGDLDASVATRWQELCRLAAPGVL
modifications: biotin by amine crosslinking (NHS-LC-LC-biotin) when used as ligand
notes: source: E. coli BL21DE3(pLysS), purified (Talon IMAC, gel filtration into HBS-T)
binding (BSA (bovine)): no binding (tested: 1 μM)
